# According to patent US20160295854A1, “COMPOSITION AND METHOD FOR EX-VIVO IMMUNOMODULATION AND/OR PRESERVATION OF ORGANS, METHODS AND USE” (UNIAO BRASILEIRA DE EDUCACAO E ASSISTENCIA , MANTENEDORA DA …, priority 2014, published 2016):
# At least one compound was matched to its structure with a doubt left.
# Test system: MARCH-I
# Assay: MARCH-I mRNA in DCs by real time PCR
# Format: cell-based, mice (Mus musculus)
# Conditions: lymph node DCs, 24 hours; Hsp70 30 μg/mL, Rapamycin 20 ng/ml, Cyclosporine A 1 μg/ml, IL-10 20 ng/ml
# Protocol: The supernatants were collected and used for analyzing cytokine. The cells were further treated with 20 ng/ml of Rapamycin (Cell Signaling), 1 μg/ml of Cyclosporine A (Roche) or 20 ng/ml of IL-10 recombinant murine (R&D System) for 24 h and the total RNA was removed.
# The total RNA was isolated from the DCs treated using the kit RNAeasy (Qiagen), according to the manufacturer instructions. The total purified RNA concentration was determined with the kit Qubit® RNA Assay Kit (Invitrogen), read in the Qubit® Fluorometer (Invitrogen). 50 ng of the RNA had reverse transcriptase with 100 U of Sensiscript (Qiagen). DNA concentrations were determined with the kit Qubit® dsDNA HS Assay (Invitrogen), read in the Qubit® Fluorometer (Invitrogen). […]
# The quantitative real time PCR was performed in the instrument StepOne™ Real-Time PCR System (Applied Biosystems). The relative levels of mRNA were calculated according to the comparative method of Ct, described by […] & LIVAK (2008). […]
# After that, IL-10 mRNA levels were analyzed by Real-time PCR. […] The IL-10 concentration was measured in the cultures supernatant by flow cytometry. […] (C) As in A, however the MARCH-I mRNA levels were analyzed by Real-time PCR. […] All treatments were performed for 24 h and MARCH-I mRNA levels were analyzed by Real-time PCR. […] After this period, grafts were sutured in the BALB/c animals' back and the acceptance was daily monitored. […]
smiles,measurement,value
"CO[C@H]1C[C@@H]2CC[C@@H](C)[C@@](O)(O2)C(=O)C(=O)N2CCCC[C@H]2C(=O)O[C@H]([C@H](C)C[C@@H]2CC[C@@H](O)[C@H](OC)C2)CC(=O)[C@H](C)/C=C(\C)[C@@H](O)[C@@H](OC)C(=O)[C@H](C)C[C@H](C)/C=C/C=C/C=C/1C [RAPA, Rapamycin, reference compound]",MARCH-I induction on DCs regarding the basal medium (FIG. 24),not able of modulating
